Our source for the binding values is article PMC6101293.

Amino acid sequences for entries named in this document (tags omitted).
UniProt P21359: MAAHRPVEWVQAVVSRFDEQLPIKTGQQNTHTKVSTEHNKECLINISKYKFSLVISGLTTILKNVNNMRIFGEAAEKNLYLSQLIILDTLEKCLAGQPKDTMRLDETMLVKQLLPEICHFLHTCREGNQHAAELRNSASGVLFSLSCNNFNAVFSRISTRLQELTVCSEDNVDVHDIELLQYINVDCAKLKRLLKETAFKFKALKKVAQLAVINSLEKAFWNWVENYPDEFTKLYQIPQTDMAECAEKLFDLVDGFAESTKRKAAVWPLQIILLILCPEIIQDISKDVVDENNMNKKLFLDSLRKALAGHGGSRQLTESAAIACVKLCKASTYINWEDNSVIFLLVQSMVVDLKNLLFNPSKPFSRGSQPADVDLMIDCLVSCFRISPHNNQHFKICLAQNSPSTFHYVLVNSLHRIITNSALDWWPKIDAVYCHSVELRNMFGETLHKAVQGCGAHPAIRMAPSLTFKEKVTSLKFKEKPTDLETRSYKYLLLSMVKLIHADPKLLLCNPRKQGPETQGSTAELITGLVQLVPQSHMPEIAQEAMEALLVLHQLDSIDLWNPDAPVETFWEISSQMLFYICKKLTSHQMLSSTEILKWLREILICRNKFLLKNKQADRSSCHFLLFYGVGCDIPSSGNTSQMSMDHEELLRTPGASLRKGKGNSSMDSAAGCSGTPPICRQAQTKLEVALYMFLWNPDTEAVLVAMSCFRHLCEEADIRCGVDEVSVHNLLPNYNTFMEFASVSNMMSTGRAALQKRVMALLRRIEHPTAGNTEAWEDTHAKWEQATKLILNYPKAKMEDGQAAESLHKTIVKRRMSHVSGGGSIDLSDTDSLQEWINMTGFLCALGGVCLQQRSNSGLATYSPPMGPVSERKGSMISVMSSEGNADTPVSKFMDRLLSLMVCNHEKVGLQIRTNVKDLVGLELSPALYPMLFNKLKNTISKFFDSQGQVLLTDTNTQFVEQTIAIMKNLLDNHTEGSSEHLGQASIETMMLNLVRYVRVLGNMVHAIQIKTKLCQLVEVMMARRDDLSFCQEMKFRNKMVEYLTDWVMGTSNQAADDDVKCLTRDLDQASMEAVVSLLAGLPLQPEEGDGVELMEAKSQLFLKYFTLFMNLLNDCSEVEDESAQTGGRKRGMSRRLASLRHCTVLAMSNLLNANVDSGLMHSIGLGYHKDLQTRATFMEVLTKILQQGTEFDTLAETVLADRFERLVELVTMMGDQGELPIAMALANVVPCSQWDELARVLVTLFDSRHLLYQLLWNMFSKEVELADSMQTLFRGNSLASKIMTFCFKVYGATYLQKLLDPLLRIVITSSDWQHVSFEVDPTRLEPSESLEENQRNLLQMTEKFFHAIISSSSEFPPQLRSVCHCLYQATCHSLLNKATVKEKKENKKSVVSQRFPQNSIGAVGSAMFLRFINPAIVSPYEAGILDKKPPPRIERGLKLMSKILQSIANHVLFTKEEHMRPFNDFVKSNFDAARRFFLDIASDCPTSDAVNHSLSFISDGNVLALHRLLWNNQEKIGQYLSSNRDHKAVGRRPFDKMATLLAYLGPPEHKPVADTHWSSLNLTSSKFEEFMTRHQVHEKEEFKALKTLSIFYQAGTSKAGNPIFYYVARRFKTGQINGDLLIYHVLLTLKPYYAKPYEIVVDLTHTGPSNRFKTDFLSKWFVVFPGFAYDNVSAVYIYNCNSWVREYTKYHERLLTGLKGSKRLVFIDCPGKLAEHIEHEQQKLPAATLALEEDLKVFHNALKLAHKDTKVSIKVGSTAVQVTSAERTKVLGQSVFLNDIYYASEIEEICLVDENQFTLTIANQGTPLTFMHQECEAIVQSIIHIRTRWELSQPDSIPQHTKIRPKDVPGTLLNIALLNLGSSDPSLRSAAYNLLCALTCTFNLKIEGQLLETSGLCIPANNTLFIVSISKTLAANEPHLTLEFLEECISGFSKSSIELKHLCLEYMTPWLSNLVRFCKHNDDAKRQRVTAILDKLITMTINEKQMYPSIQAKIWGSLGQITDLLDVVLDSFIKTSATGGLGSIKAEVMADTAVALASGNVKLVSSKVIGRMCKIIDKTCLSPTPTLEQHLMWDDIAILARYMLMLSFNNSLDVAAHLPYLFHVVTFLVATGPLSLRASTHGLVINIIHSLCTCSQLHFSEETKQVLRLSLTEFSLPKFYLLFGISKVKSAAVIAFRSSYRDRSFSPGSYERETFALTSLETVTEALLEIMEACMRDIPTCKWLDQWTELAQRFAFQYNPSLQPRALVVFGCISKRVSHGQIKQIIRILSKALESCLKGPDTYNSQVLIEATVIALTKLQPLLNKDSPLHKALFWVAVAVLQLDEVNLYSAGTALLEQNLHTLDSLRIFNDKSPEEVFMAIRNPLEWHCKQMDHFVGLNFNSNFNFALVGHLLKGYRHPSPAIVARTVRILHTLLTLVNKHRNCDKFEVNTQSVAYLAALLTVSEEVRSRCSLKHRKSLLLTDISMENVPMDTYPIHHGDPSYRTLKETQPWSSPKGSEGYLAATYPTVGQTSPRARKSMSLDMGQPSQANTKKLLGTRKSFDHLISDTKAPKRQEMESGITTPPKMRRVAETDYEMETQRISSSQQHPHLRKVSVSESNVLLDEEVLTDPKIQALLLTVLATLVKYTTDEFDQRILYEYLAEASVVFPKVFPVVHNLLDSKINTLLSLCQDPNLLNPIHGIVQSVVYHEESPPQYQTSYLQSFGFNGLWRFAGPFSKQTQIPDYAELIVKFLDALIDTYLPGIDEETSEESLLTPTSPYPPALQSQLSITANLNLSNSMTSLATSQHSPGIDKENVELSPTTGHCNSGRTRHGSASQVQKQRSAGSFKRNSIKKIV
UniProt Q7Z698: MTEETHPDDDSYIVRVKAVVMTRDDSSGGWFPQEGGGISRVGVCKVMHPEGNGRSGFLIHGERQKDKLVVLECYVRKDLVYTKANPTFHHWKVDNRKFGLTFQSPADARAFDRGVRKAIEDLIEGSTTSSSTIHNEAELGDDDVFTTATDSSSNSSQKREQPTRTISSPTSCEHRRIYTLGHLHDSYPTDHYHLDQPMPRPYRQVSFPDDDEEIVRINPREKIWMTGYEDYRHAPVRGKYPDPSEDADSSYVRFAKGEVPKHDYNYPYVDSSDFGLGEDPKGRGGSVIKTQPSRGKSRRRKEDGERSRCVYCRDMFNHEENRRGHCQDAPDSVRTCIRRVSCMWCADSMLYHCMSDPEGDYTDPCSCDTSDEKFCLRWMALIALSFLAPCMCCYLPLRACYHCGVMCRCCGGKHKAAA

No constants are given. Whether binding was seen depends on the method and setting. Binding seen in cells or lysates may run through a third protein. Here binding means that the protein was enriched with, or labelled near, the bait; the list need not be complete.

This assay addresses Neurofibromin 1 (NF1), endogenous (human (endogenous in A375 and 74T)) (UniProt P21359). As to the kind of experiment: affinity purification with mass spectrometry; endogenous NF1 immunoprecipitated with anti-NF1 and protein A/G beads from 3 mg lysate of A375 or 74T cells (1% NP-40, 50 mM Tris-HCl pH 7.5, 150 mM NaCl, 0.5% deoxycholic acid, 0.1% SDS), overnight at 4°C, five washes; SDS-PAGE, digestion, LC-MS/MS; control normal rabbit IgG.

For the molecule “SPRED2, endogenous (from UniProt Q7Z698 1-418)”, the binding entry was “binds”.

B1: CAPN1 small (regulatory, 28 kDa) subunit, endogenous (protein, UniProt P04632 1-268)
chain: MFLVNSFLKGGGGGGGGGGGLGGGLGNVLGGLISGAGGGGGGGGGGGGGGGGGGGGTAMRILGGVISAISEAAAQYNPEPPPPRTHYSNIEANESEEVRQFRRLFAQLAGDDMEVSATELMNILNKVVTRHPDLKTDGFGIDTCRSMVAVMDSDTTGKLGFEEFKYLWNNIKRWQAIYKQFDTDRSGTICSSELPGAFEAAGFHLNEHLYNMIIRRYSDESGNMDFDNFISCLVRLDAMFRAFKSLDKDGTGQIQVNIQEWLQLTMYS
As to B1, the binding entry is given as “binds”.
